Some results were stated once for a whole list of compounds, not compound by compound.
Test system: Phakopsora pachyrhizi
Experiment: Protective control of soy bean rust on soybeans (glasshouse trial)
Type: in vivo, Phakopsora pachyrhizi on soybean seedlings
Details: 250 ppm active compound, leaves sprayed to run-off, inoculated next day, assessed after fourteen days; untreated plants 90% infected

COc1cncc(CNS(=O)(=O)c2ccc(Oc3ccccc3)cc2)n1 [I-57, N-(6-methoxy-pyrazin-2-ylmethyl)-4-phenoxy-benzene-sulfonamide]
infection (extent of fungal attack on the leaves, visually assessed as % diseased leaf area): less than or equal to 10%
